Some of the results follow. Further columns of the screen follow, without active or inactive calls.

This assay in a line: modulators of CD8 T cell-vesicle binding, confirmation, cherry-picked primary hits, two concentrations (AID 2810).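 On all read-outs here: lower values mean blocking of vesicle binding.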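 On percent response (vesicle binding): ratio of mean FL2 vesicle stain of CD8+ cells to that row's control.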 The conditions noted are these: 2C CD8+ T cell-vesicle binding, flow cytometry; for double positive events: CD8+/vesicle+ events.
The mark [1] stands for this setting: at 15.4 µM, stronger effect = lower value.

`O=C(NCCc1nc2ccc(Cl)cc2[nH]1)C1CCC(=O)N(Cc2cccc(F)c2)C1` (centres undefined): for the setting “at 7.7 µM”, the double positive events turned out to be 29.9% and the percent response (vesicle binding) was determined as 404%. Under setting [1], this compound returned a double positive events of 4.3%.

Regarding `O=C(Cn1c(=S)[nH]c2ccccc2c1=O)N1CCN(c2ccccc2)CC1`, the double positive events was found to be 18.4% (at 7.7 µM) and 19.5% under setting [1]. Further, the percent response (vesicle binding) (at 7.7 µM) was 198%.

Consider `CC1(C)Cc2c(sc3nc4n(c(=N)c23)CCC4)CO1`, for which, under “at 7.7 µM”, the double positive events is 28.8% and the percent response (vesicle binding) was 316%. In addition, the double positive events under setting [1] amounted to 17.1%.

Where the note is “at 7.7 µM”, `O=C(NCc1ccc2c(c1)OCO2)C(C(=O)c1ccccc1)n1cc(Cl)ccc1=O` (centres undefined) showed a double positive events of 14% and a percent response (vesicle binding) of 444%. Further, under setting [1], the double positive events came out at 22.1%.

`Cc1ccc(Cl)c2c1NC(=O)C2=O` gave a double positive events (at 7.7 µM) of 27.5% and a double positive events under setting [1] of 19.3%. Besides, under “at 7.7 µM”, the percent response (vesicle binding) was 166%.

On to `C=CC(C)(C)c1c(O)c(CC=C(C)C)c(O)c2c(=O)c3ccc(O)c(O)c3oc12`, for which, where the note is “at 7.7 µM”, the double positive events worked out at 15.9% and the percent response (vesicle binding) worked out at 222%. For the same compound, the double positive events under setting [1] came out at 12.2%.

As for `Cc1cc(NC(=O)C(C)SCC(=O)Nc2ccccc2N2CCCCC2)no1` (centres undefined), where the note is “at 7.7 µM”, the double positive events was determined as 14.9% and the percent response (vesicle binding) was determined as 203%. Also, under setting [1], the double positive events turned out to be 17%.

Consider `CCN(CC)c1ccc(NC(=O)c2ccco2)cc1`, for which, under “at 7.7 µM”, the double positive events stood at 8.2% and the percent response (vesicle binding) was 84.2%. The compound also showed a double positive events under setting [1] of 9.2%.

Turning to `Cn1c(Cn2c(=O)sc3ccccc32)nnc1SCC(=O)NC1CCCCC1`, the double positive events runs as follows: (at 7.7 µM) 16.9%; under setting [1], 12%. In addition, the percent response (vesicle binding) (at 7.7 µM) worked out at 111%.

Consider `COc1ccc(OCC(O)CNC(=O)Nc2ccc(C(C)(C)C)cc2)cc1` (centres undefined), for which, under “at 7.7 µM”, the double positive events is 15% and the percent response (vesicle binding) turned out to be 478%. The same compound gave a double positive events under setting [1] of 15.4%.

On to `O=C(COc1ccc(Cl)cc1[N+](=O)[O-])N1CCCCCC1`, for which, under “at 7.7 µM”, the double positive events worked out at 18.2% and the percent response (vesicle binding) was 116%. Further, the double positive events under setting [1] came to 12.7%.

For the compound `CC(C)(C)c1cc(-c2ccccc2)no1`, for the setting “at 7.7 µM”, the double positive events was found to be 33.1% and the percent response (vesicle binding) was 830%. Moreover, the double positive events under setting [1] came out at 30.7%.

With `COc1ccc(NC(=O)/C(C#N)=C/c2cc(C)n(-c3ccc(N4CCOCC4)c([N+](=O)[O-])c3)c2C)cc1`, the double positive events came to 12.1% (at 7.7 µM) and 27.7% under setting [1]. Also, for the setting “at 7.7 µM”, the percent response (vesicle binding) was determined as 290%.

As to `O=C(Nc1nccs1)c1nc[nH]c1C(=O)NCc1ccccc1`, the double positive events is, setting by setting: (at 7.7 µM) 25.1%; under setting [1], 15.8%. This compound also displayed a percent response (vesicle binding) (at 7.7 µM) of 241%.

For the compound `O=C(O)Cc1sc(Nc2ccccc2)nc1-c1ccc(Cl)cc1`, under “at 7.7 µM”, the double positive events is 12.5% and the percent response (vesicle binding) came out at 232%. Also, the double positive events under setting [1] stood at 9.1%.

For the setting “at 7.7 µM”, `COc1ccc(/C=C2\SC(=O)N(CC(=O)Nc3cccc(C)c3)C2=O)cc1O` showed a double positive events of 45.6% and a percent response (vesicle binding) of 291%. Under setting [1], this compound gave a double positive events of 23.5%.

`NS(=O)(=O)c1ccc(NC(=O)c2ccccc2C(=O)N2CCCCC2)cc1`: under “at 7.7 µM”, the double positive events was found to be 19.2% and the percent response (vesicle binding) came out at 301%. Moreover, the double positive events under setting [1] was found to be 28.3%.

Under “at 7.7 µM”, `CCCOc1ccc(N2C(=O)CC(N(C(=O)c3ccco3)c3ccc(OCCC)cc3)C2=O)cc1` (centres undefined) showed a double positive events of 22% and a percent response (vesicle binding) of 220%. Moreover, the double positive events under setting [1] turned out to be 17.9%.

Under “at 7.7 µM”, `Cc1cc(C)c(C#N)c(SCc2ccc3c(c2)OCO3)n1` gave a double positive events of 5% and a percent response (vesicle binding) of 310%. Besides, the double positive events under setting [1] is 10.4%.

Where the note is “at 7.7 µM”, `O=C(/C=C/c1ccc(Br)cc1)c1ccc(NC(=O)c2ccco2)cc1` came in with a double positive events of 26.8% and a percent response (vesicle binding) of 132%. The compound also came in with a double positive events under setting [1] of 4.7%.

For the setting “at 7.7 µM”, `Cc1cc(Cl)c(OCCCSc2nc(C)cc(=O)[nH]2)c(Br)c1` yielded a double positive events of 10.3% and a percent response (vesicle binding) of 114%. Also, the double positive events under setting [1] was determined as 9.5%.

Consider `COc1ccc(-c2cc(CCCC(=O)NCc3ccccn3)no2)cc1`, for which, where the note is “at 7.7 µM”, the double positive events came to 15.4% and the percent response (vesicle binding) was 190%. For the same compound, under setting [1], the double positive events came out at 20.9%.

For the setting “at 7.7 µM”, `CCCCC[C@@H](O)c1cc2ccccc2c(=O)o1` registered a double positive events of 11.5% and a percent response (vesicle binding) of 374%. Under setting [1], this compound returned a double positive events of 13.9%.
